The target in assay [1] is T1, Ten1 (yeast two-hybrid fusion) (S. pombe) (UniProt P0C5Y7).
T1 sequence: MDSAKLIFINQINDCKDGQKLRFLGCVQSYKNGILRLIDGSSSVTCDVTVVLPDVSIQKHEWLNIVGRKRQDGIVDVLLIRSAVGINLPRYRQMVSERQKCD
The assay is described as follows: two-hybrid; Stn1 and Ten1 as Gal4 fusions (Supplementary Fig 6); mated S. cerevisiae Y2HGold x Y187, SD-HTL or SD-HTLA plates.

For assay [2], the target named is T2, DNA polymerase α (Polα) (S. pombe) (UniProt P28040).
T2 sequence: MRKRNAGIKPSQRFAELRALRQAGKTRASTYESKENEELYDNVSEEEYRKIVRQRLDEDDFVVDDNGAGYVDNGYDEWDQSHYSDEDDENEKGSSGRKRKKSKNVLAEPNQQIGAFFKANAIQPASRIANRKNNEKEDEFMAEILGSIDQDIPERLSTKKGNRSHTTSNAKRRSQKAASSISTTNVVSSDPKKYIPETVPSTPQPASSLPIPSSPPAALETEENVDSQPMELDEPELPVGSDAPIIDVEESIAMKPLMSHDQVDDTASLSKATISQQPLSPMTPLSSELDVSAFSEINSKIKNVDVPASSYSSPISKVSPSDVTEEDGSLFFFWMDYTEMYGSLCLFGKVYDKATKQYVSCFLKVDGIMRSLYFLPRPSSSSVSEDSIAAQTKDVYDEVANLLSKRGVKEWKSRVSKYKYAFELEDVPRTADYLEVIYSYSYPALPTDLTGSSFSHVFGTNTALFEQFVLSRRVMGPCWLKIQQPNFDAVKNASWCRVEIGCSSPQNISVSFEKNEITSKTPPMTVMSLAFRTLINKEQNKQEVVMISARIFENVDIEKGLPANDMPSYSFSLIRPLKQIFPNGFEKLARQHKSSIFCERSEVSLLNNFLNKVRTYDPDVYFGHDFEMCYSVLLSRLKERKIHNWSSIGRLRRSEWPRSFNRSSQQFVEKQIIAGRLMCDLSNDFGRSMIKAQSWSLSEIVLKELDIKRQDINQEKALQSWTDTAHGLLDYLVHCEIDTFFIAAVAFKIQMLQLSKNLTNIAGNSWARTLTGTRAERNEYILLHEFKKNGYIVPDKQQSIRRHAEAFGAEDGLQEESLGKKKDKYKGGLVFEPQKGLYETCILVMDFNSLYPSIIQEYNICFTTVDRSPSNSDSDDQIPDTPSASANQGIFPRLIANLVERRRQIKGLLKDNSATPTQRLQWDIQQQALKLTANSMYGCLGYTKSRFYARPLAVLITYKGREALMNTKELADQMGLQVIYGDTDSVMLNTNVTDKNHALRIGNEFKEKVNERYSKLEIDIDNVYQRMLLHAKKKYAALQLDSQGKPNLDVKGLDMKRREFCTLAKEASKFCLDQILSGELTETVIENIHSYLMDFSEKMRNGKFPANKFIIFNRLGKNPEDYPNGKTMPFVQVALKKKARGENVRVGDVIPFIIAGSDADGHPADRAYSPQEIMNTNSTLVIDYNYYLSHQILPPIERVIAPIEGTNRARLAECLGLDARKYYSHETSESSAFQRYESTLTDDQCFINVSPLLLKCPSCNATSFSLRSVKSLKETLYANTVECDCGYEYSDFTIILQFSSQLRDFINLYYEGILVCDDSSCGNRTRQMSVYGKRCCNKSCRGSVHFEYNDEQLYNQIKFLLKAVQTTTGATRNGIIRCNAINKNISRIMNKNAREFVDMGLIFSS
The assay is described as follows: co-IP; S. pombe cell extracts; lysis buffer 50 mM Tris pH 8.0, 150 mM NaCl, 10% glycerol, 5 mM EDTA, 0.5% NP-40; Dynabeads Protein G with anti-myc, anti-FLAG or anti-GFP.

In assay [3] the target is T3, Ten1 (in fission yeast cells) (S. pombe) (UniProt P0C5Y7).
T3 sequence: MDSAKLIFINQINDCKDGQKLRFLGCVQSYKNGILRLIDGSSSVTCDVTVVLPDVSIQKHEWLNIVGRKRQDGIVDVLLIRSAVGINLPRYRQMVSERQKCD
The assay is described as above.

Assay [4] concerns the target T4, GBD-Stn1 + Ten1 (Gal4 DNA-binding domain fused to Stn1, in the presence of untagged Ten1) (S. pombe) (UniProt Q0E7J7+P0C5Y7).
T4 sequence 1: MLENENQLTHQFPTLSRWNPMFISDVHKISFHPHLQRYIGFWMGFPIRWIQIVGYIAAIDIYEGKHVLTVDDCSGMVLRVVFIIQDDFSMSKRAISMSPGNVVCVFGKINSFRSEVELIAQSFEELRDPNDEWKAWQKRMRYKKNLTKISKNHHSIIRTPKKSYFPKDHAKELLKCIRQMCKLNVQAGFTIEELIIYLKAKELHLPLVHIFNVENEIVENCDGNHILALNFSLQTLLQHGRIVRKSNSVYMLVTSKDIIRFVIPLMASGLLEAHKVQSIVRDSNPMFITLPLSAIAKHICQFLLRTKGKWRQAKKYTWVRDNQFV
T4 sequence 2: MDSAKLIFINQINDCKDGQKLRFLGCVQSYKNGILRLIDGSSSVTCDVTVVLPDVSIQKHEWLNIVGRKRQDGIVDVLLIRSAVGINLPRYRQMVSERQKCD
Kind of assay: two-hybrid; GAD fused to Tpz1, GBD fused to Stn1, in the presence of untagged Ten1; growth on -His plate indicates interaction; mated S. cerevisiae Y2HGold x Y187.

In assay [5] the target is T5, Pot1 (S. pombe) (UniProt O13988).
T5 sequence: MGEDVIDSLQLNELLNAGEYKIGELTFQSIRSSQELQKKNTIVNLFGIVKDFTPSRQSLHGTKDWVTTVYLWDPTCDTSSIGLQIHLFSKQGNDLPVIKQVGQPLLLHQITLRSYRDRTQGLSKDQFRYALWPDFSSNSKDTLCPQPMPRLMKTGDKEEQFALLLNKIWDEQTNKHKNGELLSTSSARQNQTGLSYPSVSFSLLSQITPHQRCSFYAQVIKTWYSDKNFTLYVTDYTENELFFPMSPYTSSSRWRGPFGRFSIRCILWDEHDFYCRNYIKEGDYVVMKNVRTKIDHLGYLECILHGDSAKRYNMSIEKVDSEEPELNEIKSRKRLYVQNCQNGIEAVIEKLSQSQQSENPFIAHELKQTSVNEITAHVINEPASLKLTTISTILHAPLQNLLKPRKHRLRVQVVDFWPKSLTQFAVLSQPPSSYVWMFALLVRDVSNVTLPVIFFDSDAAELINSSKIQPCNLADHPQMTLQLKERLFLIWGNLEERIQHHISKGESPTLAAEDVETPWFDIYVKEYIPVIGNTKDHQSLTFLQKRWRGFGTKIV
The assay is described as follows: co-IP; S. pombe cell extracts; lysis buffer 50 mM Tris pH 8.0, 150 mM NaCl, 10% glycerol, 5 mM EDTA, 0.5% NP-40; Dynabeads Protein G with anti-myc, anti-FLAG or anti-GFP.

Assay [6] has as its target T6, Poz1 (S. pombe) (UniProt O13852).
T6 sequence: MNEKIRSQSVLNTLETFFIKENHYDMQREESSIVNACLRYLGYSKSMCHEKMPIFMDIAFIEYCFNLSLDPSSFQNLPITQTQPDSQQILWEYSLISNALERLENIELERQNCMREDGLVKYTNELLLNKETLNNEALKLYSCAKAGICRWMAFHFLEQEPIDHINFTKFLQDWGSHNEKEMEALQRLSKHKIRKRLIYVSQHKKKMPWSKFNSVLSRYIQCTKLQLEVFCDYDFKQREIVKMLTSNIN
The description is as above.

The target of assay [7] is T7, Stn1 (in fission yeast cells) (S. pombe) (UniProt Q0E7J7).
T7 sequence: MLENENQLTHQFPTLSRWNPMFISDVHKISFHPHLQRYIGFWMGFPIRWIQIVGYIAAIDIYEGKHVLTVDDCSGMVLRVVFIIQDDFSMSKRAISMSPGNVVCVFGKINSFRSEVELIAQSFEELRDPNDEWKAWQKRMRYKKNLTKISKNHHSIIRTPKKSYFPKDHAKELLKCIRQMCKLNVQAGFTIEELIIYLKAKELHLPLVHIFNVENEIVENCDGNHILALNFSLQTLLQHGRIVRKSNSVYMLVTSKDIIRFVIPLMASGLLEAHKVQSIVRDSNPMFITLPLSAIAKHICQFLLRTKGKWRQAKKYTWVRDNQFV
The assay is described as follows: co-IP; S. pombe whole cell extract, FLAG-IP; lysis buffer 50 mM Tris pH 8.0, 150 mM NaCl, 10% glycerol, 5 mM EDTA, 0.5% NP-40; 2 mM DSP added to stabilize the interaction.

This note sets out measurements from PMC6686008.

These are yes or no findings as the source states them, for the method shown. For some of these results: Binding seen in cells or lysates may run through a third protein. Some entries that bind do so weakly or less than the wild type. For some of these results: Sequences can lack the tags named with a protein.

B1: Stn1 (yeast two-hybrid fusion, Stn1-Ten1 assay) (protein, UniProt Q0E7J7 1-325)
chain: MLENENQLTHQFPTLSRWNPMFISDVHKISFHPHLQRYIGFWMGFPIRWIQIVGYIAAIDIYEGKHVLTVDDCSGMVLRVVFIIQDDFSMSKRAISMSPGNVVCVFGKINSFRSEVELIAQSFEELRDPNDEWKAWQKRMRYKKNLTKISKNHHSIIRTPKKSYFPKDHAKELLKCIRQMCKLNVQAGFTIEELIIYLKAKELHLPLVHIFNVENEIVENCDGNHILALNFSLQTLLQHGRIVRKSNSVYMLVTSKDIIRFVIPLMASGLLEAHKVQSIVRDSNPMFITLPLSAIAKHICQFLLRTKGKWRQAKKYTWVRDNQFV
On to B1, for which the binding result in assay [1] is reported as “binds”.

B2: Stn1 (in fission yeast cells) (protein, UniProt Q0E7J7 1-325)
chain: MLENENQLTHQFPTLSRWNPMFISDVHKISFHPHLQRYIGFWMGFPIRWIQIVGYIAAIDIYEGKHVLTVDDCSGMVLRVVFIIQDDFSMSKRAISMSPGNVVCVFGKINSFRSEVELIAQSFEELRDPNDEWKAWQKRMRYKKNLTKISKNHHSIIRTPKKSYFPKDHAKELLKCIRQMCKLNVQAGFTIEELIIYLKAKELHLPLVHIFNVENEIVENCDGNHILALNFSLQTLLQHGRIVRKSNSVYMLVTSKDIIRFVIPLMASGLLEAHKVQSIVRDSNPMFITLPLSAIAKHICQFLLRTKGKWRQAKKYTWVRDNQFV
As for B2, the binding result in assay [2] and in assay [3] was “binds” throughout.

B3: GAD-Tpz1 (Gal4 activation domain fused to Tpz1) (protein, UniProt O14246 1-508)
chain: MSNCLKHPWLENGLLNLIKNADVLPIRVFKCQPLQIFEYIRYEHPIRCKLSDTEFYIEAEFSSQSISDLNNFTEKRITSLRGGIVTLGNFLIHLIPSQSGIIPWIQVESFNFQGCEGAVFGNPKAITTSALFNALLQSPYLAALANEFNRSIKEGSSYQEASLSQQEKPNDNTSNSRDIKNNIQFHWKNMTSLSIEECIIPKGQQLILEKESEENTTHGIYLEERKMAQGLHNSVSETPEVKQEDNDEDLDAYSWSSSTDSAGEIPSLPTNRKILEKIAEKPPPFESPLEDDETPDQTNEHEANQVNVSQLPLNPRGSGISGRPVESTEQLNSSLTIERSQSIQSTDSKQRVETQSHRRSKIEIFDAQDELFDRSICTTIDDSTGKLLNAEETPIKTGDLHSTSASSVISCTPPAINFTSDICNEQIELEYKRKPIPDYDFMKGLETTLQELYVEHQSKKRRLELFQLTNNHQKNSEACEMCRLGLPHGSFFELLRDWKKIEEFRNKS
Turning to B3, the binding result in assay [4] is recorded as “binds”.

B4: myc-tagged wild-type Tpz1 (protein, UniProt O14246 1-508)
chain: MSNCLKHPWLENGLLNLIKNADVLPIRVFKCQPLQIFEYIRYEHPIRCKLSDTEFYIEAEFSSQSISDLNNFTEKRITSLRGGIVTLGNFLIHLIPSQSGIIPWIQVESFNFQGCEGAVFGNPKAITTSALFNALLQSPYLAALANEFNRSIKEGSSYQEASLSQQEKPNDNTSNSRDIKNNIQFHWKNMTSLSIEECIIPKGQQLILEKESEENTTHGIYLEERKMAQGLHNSVSETPEVKQEDNDEDLDAYSWSSSTDSAGEIPSLPTNRKILEKIAEKPPPFESPLEDDETPDQTNEHEANQVNVSQLPLNPRGSGISGRPVESTEQLNSSLTIERSQSIQSTDSKQRVETQSHRRSKIEIFDAQDELFDRSICTTIDDSTGKLLNAEETPIKTGDLHSTSASSVISCTPPAINFTSDICNEQIELEYKRKPIPDYDFMKGLETTLQELYVEHQSKKRRLELFQLTNNHQKNSEACEMCRLGLPHGSFFELLRDWKKIEEFRNKS
For the molecule B4, the binding result in assay [5] and in assay [6] was “binds” each time.

B5: Tpz1 (wild type, in fission yeast cells) (protein, UniProt O14246 1-508)
chain: MSNCLKHPWLENGLLNLIKNADVLPIRVFKCQPLQIFEYIRYEHPIRCKLSDTEFYIEAEFSSQSISDLNNFTEKRITSLRGGIVTLGNFLIHLIPSQSGIIPWIQVESFNFQGCEGAVFGNPKAITTSALFNALLQSPYLAALANEFNRSIKEGSSYQEASLSQQEKPNDNTSNSRDIKNNIQFHWKNMTSLSIEECIIPKGQQLILEKESEENTTHGIYLEERKMAQGLHNSVSETPEVKQEDNDEDLDAYSWSSSTDSAGEIPSLPTNRKILEKIAEKPPPFESPLEDDETPDQTNEHEANQVNVSQLPLNPRGSGISGRPVESTEQLNSSLTIERSQSIQSTDSKQRVETQSHRRSKIEIFDAQDELFDRSICTTIDDSTGKLLNAEETPIKTGDLHSTSASSVISCTPPAINFTSDICNEQIELEYKRKPIPDYDFMKGLETTLQELYVEHQSKKRRLELFQLTNNHQKNSEACEMCRLGLPHGSFFELLRDWKKIEEFRNKS
For B5, the binding result in assay [7] is reported as “binds”.
